Data reported in the supplement of paper PMC12823440, “Inhibitors supercharge kinase turnover through native proteolytic circuits” (Nature, 2025).
Counter-ions that a name gives are not always drawn. The list shows a part of the results. Hit calls seldom repeat between salt and free forms of one compound.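 Kinases were expressed as nanoluciferase fusions in K562 cells and luminescence was read every 4 h between 2 and 18 h as percent of control, DMSO set to 100% and a positive control to 0%. A time point counts as decreased when the signal drops significantly (2 sigma). The hit call is the authors' own, does not follow from the count of time points alone, and its rule is not shown.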

The compounds below were run against MAP2K1 (UniProt Q02750) (assay: kinase-Nluc reporter destabilization hit call (1 = scored as downregulated) (binary); higher = compound decreases kinase abundance). Details: 2.5 µM; K562; 2-18 h.

Row | Compound | kinase-Nluc reporter destabilization hit call
1 | Nc1nc(Nc2ccc(S(N)(=O)=O)cc2)nn1C(=O)c1c(F)cccc1F | inactive: 0
2 | CCOc1cc2ncc(C#N)c(Nc3ccc(F)c(Cl)c3)c2cc1NC(=O)/C=C/CN(C)C [Pelitinib] | inactive: 0
3 | Nc1ncnc2c1c(-c1cnc3[nH]ccc3c1)nn2C1CCCC1 | inactive: 0
4 | CCN(CC)CCNC(=O)c1c(C)[nH]c(/C=C2\C(=O)Nc3ccc(F)cc32)c1C [Sunitinib] | inactive: 0
5 | C=CC(=O)Nc1cc2c(Nc3ccc(F)c(Cl)c3)ncnc2cc1OCCCN1CCOCC1 [Canertinib (dihydrochloride)] | inactive: 0
6 | Cc1[nH]c(/C=C2\C(=O)Nc3ccc(F)cc32)c(C)c1C(=O)NC[C@H](O)CN1CCOCC1 | inactive: 0
7 | Cc1cc(Nc2cc(N3CCN(C)CC3)nc(/C=C/c3ccccc3)n2)n[nH]1 [ENMD-2076 (Tartrate)] | inactive: 0
8 | O=C(Nc1cccc(Nc2nccc(Nc3cccc(C(F)(F)F)c3)n2)c1)C1CC1 [Aurora kinase inhibitor-3] | inactive: 0
9 | CN1CCN(c2ccc3nc(-c4c(N)c5c(F)cccc5[nH]c4=O)[nH]c3c2)CC1 [Dovitinib] | inactive: 0
10 | O=C1NCCc2[nH]c(-c3ccncc3)cc21 | inactive: 0
11 | CC1(C)CNc2cc(NC(=O)c3cccnc3NCc3ccncc3)ccc21 [Motesanib (Diphosphate)] | inactive: 0
12 | COc1cc2/c(=N/c3ccc(Br)cc3F)nc[nH]c2cc1OCC1CCN(C)CC1 [Vandetanib] | inactive: 0
13 | CC(C)n1nc(-c2cc3cc(O)ccc3[nH]2)c2c(N)ncnc21 [Torkinib] | inactive: 0

Two compounds picked at random from the list so far:
Row | Compound | kinase-Nluc reporter destabilization hit call
5 | C=CC(=O)Nc1cc2c(Nc3ccc(F)c(Cl)c3)ncnc2cc1OCCCN1CCOCC1 [Canertinib (dihydrochloride)] | inactive: 0
7 | Cc1cc(Nc2cc(N3CCN(C)CC3)nc(/C=C/c3ccccc3)n2)n[nH]1 [ENMD-2076 (Tartrate)] | inactive: 0
